Data published in PubChem BioAssay AID2685 (National Center for Advancing Translational Sciences (NCATS), 2010).
The list shows a part of the results. Shown are side measurements of this screen, not its main read-out; they come without a call. Compounds called inactive in the main read-out are mostly missing here. Words in brackets tell the shape of the fitted curve; partial curves, single points and poor fits give uncertain potencies.

Test: qHTS Assay for Lipid Storage Modulators in Drosophila S3 Cells;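 as to cell number change: cells counted by Cell Tracker Red CMTPX staining in the red channel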
Settings: BODIPY lipid droplet fluorescence, 18-24 h; for cell number change: measured here: cell count max response, cells fed with added oleic acid
Outline: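 Drosophila S3 cells got compounds at several concentrations plus oleic acid (400 uM solution). Laser-scanning cytometry with 488 nm excitation read lipid droplets at 500-530 nm and cells at 575-640 nm. Percent activity was relative to 20 uM Triacsin C.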

[1] = measured here: lipid fluorescence (Fed channel) AC50, cells fed with added oleic acid
[2] = measured here: cell number channel AC50, cells fed with added oleic acid

Structure (SMILES) | cell number change [%] | AC50 [1] | AC50 [2]
CCN(CC)c1ccc(N=Cc2c(O)n(Cc3ccco3)c(=O)[nH]c2=O)cc1 | -7.65 | 6.51 µM [falling, single point] | –
CC(C)(C)C(=O)Cn1c(NCCCl)nc2ccccc21 | -8.66 | 0.146 µM [falling, full curve, poor fit] | 0.092 µM [falling, full curve, poor fit]
CCCCn1c(=O)c(C(=O)Nc2cnccn2)c(O)c2ccccc21 | -8.24 | 6.51 µM [rising, partial curve, poor fit] | –
CCN(CC)C(=O)c1ccc(N2C(=O)C3CC=C(Cl)CC3C2=O)cc1 (centres undefined) | -2.56 | – | –
COc1ccc(CN2CCCC(C(=O)c3ccc(Cl)cc3)C2)c(OC)c1 (centres undefined) | – | 29.1 µM [falling, single point] | 0.326 µM [rising, full curve, poor fit]
CC(C)C12CN3CCN(CC(C3)C1O)C2 (centres undefined) | -32.1 | 0.092 µM [falling, full curve] | 36.6 µM [falling, partial curve, poor fit]
O=C(COC(=O)Cc1ccccc1)NNC(=O)c1ccc([N+](=O)[O-])cc1 | 3.11 | 6.51 µM [rising, single point] | –
CC(C)c1ccccc1NC1=NCCCS1 | 11.3 | 0.206 µM [rising, single point] | –
c1ccc(C2=NP(N3CCOCC3)(N3CCOCC3)=NC(N3CCOCC3)=N2)cc1 | -13.1 | 2.59 µM [rising, full curve, poor fit] | –
CN1C(=O)/C(=C/c2cccn2-c2ccc3ccccc3c2)C(=O)NC1=S | – | 4.11 µM [falling, partial curve] | –
Cn1c(=O)cc(OCC(=O)N2CCN(Cc3ccc4c(c3)OCO4)CC2)c2ccccc21 | -11.7 | 18.4 µM [falling, single point] | –
CSCc1nnc2n1-c1ccc(Cl)cc1C(c1ccccc1)=NC2 | -54.3 | – | 23.1 µM [falling, partial curve]
CC(=O)c1ccc(OCC(=O)N2CCCC(N3CCN(c4ccccc4C)CC3)C2)cc1 (centres undefined) | – | 29.1 µM [falling, single point] | –
Cc1cc(OCc2nn[nH]n2)c2c3c(c(=O)oc2c1)CCCC3 | 4.57 | 20.6 µM [rising, single point] | –
COC(=O)CCP(=O)(O)Cc1ccccc1CP(=O)(O)CCC(=O)OC | – | – | 6.51 µM [falling, partial curve, poor fit]
N#Cc1ccccc1NC(=O)CN1CC=C(c2ccccc2)CC1 | 40.2 | – | 32.6 µM [rising, single point]
Cc1cc(OCCN2CC2)c2ccccc2n1 | – | – | 3.26 µM [rising, partial curve]
CC(=O)OC1N=C(c2ccc(Cl)cc2)c2cc(Br)ccc2NC1=O (centres undefined) | -34.6 | 29.1 µM [falling, single point] | 29.1 µM [falling, single point]
Cn1cc2c([N+](=O)[O-])cc([N+](=O)[O-])cc2n1 | 21.4 | – | –

A few values from the results shown:
Entry for c1ccc(C2=NP(N3CCOCC3)(N3CCOCC3)=NC(N3CCOCC3)=N2)cc1 under cell number change [%]: -13.1
Entry for Cn1c(=O)cc(OCC(=O)N2CCN(Cc3ccc4c(c3)OCO4)CC2)c2ccccc21 under cell number change [%]: -11.7

(further entries)

Structure (SMILES) | cell number change [%] | AC50 [1] | AC50 [2]
CC(=O)Nc1ccccc1C(=O)OCc1ccccc1F | -4.33 | 4.11 µM [falling, partial curve, poor fit] | 4.11 µM [falling, single point]
O=C(Cn1c2c(c(-c3ccccc3Cl)cc1=O)CCC2)N1CCC2(CC1)OCCO2 | – | 3.66 µM [falling, single point] | –
O=C(CN1C(=O)CCSc2ccccc21)N1CCC2(CC1)OCCO2 | -42.5 | – | 4.11 µM [falling, full curve]
OC(CNCCc1c[nH]c2ccccc12)c1ccccc1 (centres undefined) | 25.8 | – | –
COc1ccc(OCC(=O)N2CCN(Cc3ccc4c(c3)OCO4)CC2)cc1 | 10.3 | 0.00461 µM [rising, full curve, poor fit] | –
CC1(C)C2([N+](=O)[O-])CN3CC1([N+](=O)[O-])CN(C2)C3c1ccccn1 (centres undefined) | 3.04 | – | –
CCOP(=O)(c1ccc(N(C)C)cc1)C(O)c1ccccc1 (centres undefined) | – | – | 0.0326 µM [falling, partial curve]
O=C(CCc1ccc(O)cc1)N1C[C@H]2C[C@@H](C1)c1cccc(=O)n1C2 | 4.21 | 6.51 µM [rising, single point] | –
Cc1cccn2c(=O)c3c(nc12)N1CCCCCC1C1(C3)C(=O)N(C)C(=O)N(C)C1=O (centres undefined) | 34 | – | 18.4 µM [rising, partial curve, poor fit]
CCCCn1c(O)c(C(CC)=NCCCN(C)C)c(=O)[nH]c1=O | -6.54 | – | –
O=c1c2ccccc2nc(/C=C/c2ccc(O)cc2)n1-c1ccccc1O | 24.4 | 0.82 µM [rising, full curve, poor fit] | –
CC12CC[C@H]3[C@@H](CCC4(O)C[C@H](O)CCC34/C=N/NC(=O)c3ccccc3F)C1(O)CCC2C1=CC(=O)OC1 (some centres undefined) | -25.1 | 13 µM [falling, partial curve] | 0.82 µM [falling, full curve, poor fit]
CSc1ccc(C(=O)C2CCCN(Cc3cc4ccccc4[nH]3)C2)cc1 (centres undefined) | -57.2 | 23.1 µM [falling, single point] | 20.6 µM [falling, single point]
CN1C(=O)N(C)C(=O)C(CCc2ccncc2)(CCc2ccncc2)C1=O | 13.7 | 6.51 µM [rising, single point] | –
CC(=O)CCC(C)=O | -25.2 | 0.103 µM [rising, full curve, poor fit] | 0.082 µM [falling, full curve, poor fit]
Cc1nc2cc(C(F)(F)F)ccc2n1C1CCN(Cc2nnnn2CCc2ccccc2)CC1 | -47.7 | 29.1 µM [falling, single point] | 29.1 µM [falling, single point]
O=C1/C(=C/c2cc3c(cc2Cl)OCO3)N2CCC1CC2 | -11.5 | 0.092 µM [rising, full curve, poor fit] | –
Cc1cc(C)n2nc(SC(C)C(=O)N3CCC4(CC3)OCCO4)nc2n1 (centres undefined) | -4.33 | 0.082 µM [rising, full curve, poor fit] | –
O=c1[nH]c(O)c(N=Nc2cc(C(F)(F)F)ccc2Cl)c(=O)[nH]1 | 21.7 | 29.1 µM [rising, single point] | –

Structure (SMILES) | cell number change [%] | AC50 [1] | AC50 [2]
CP(=O)(O)CCCN | -52.1 | 5.17 µM [falling, partial curve] | 29.1 µM [falling, single point]
O=C1NC(=O)N(Cc2ccco2)C(=O)/C1=C\c1cccn1CCOc1ccc(Cl)cc1 | -12.5 | 11.6 µM [falling, partial curve] | –
CCOC(=O)c1ccc(-[n+]2c(-c3ccccc3)cc(-c3ccccc3)cc2-c2ccccc2)cc1 | -9.57 | 6.51 µM [falling, single point] | –
CC[N+](CC)(CC)CCCCCCCCCC[N+](CC)(CC)CC | 9.25 | 6.51 µM [falling, single point] | –
COc1ccccc1-n1c(O)c(/C=N/N2CCCCC2)c(=O)n(-c2ccccc2OC)c1=S | 11.3 | – | –
CCOP(=O)(Cc1ccc(C#N)o1)OCC | -24.9 | 4.61 µM [rising, partial curve] | –
COc1ccc(C2C(C(=O)N3CCC4(CC3)OCCO4)c3cc(OC)c(OC)cc3C(=O)N2C)cc1 (centres undefined) | – | 0.82 µM [falling, full curve, poor fit] | –
O=C1C=Cc2ccccc2C1=O | -1.57 | 25.9 µM [falling, single point] | –
CC(N)C(=O)OC(C)(C)Cc1ccc(Cl)cc1 (centres undefined) | 42.4 | 4.11 µM [rising, partial curve] | 0.651 µM [rising, partial curve]
c1ccc(-c2ccc(-c3n(-c4ccccn4)c4ccccc4[n+]3-c3ccccn3)cc2)cc1 | -62.3 | 29.1 µM [falling, single point] | 29.1 µM [falling, single point]
CCC(=O)c1cn(Cc2ccc(C#N)cc2)c2ccccc12 | 14.9 | 6.51 µM [rising, single point] | –
CNCC(O)c1cccc(OC(=O)c2ccccc2C)c1 (centres undefined) | 13.1 | 5.17 µM [falling, single point] | –
COC(=O)C1=C(c2ccc(F)cc2OCc2ccccc2)C[C@@H]2CC[C@H]1N2C(=O)NCc1cccc(C(F)(F)F)c1 | -20.9 | – | –
Cc1nn(Cc2ccccc2Cl)c(Cl)c1C(=O)OCC(=O)NC(=O)NC1CCCCC1 | 30.6 | 14.6 µM [rising, partial curve, poor fit] | 9.2 µM [rising, partial curve]
C=CCn1c(O)c(C(CC)=Nc2cc(OC)ccc2OC)c(=O)[nH]c1=O | -6 | 0.116 µM [rising, full curve, poor fit] | –
O=C(CN1CCCC1=O)Nc1ccccc1 | -8.06 | 10.3 µM [falling, partial curve] | 0.731 µM [falling, single point]
C/C(=N/OC(=O)N(C)C)c1ncc(C(F)(F)F)cc1N1CCOCC1 | 71.1 | 25.9 µM [rising, partial curve] | 32.6 µM [rising, partial curve, poor fit]
Fc1ccc2c(c1)nnn2C1CCN(Cc2nnnn2CCc2ccccc2)CC1 | -15.6 | 1.3 µM [rising, partial curve] | –
CC(C)c1ccc(-n2c(O)c(/C=N/NC(=O)c3ccncc3)c(=O)[nH]c2=O)cc1 | -31 | – | 16.4 µM [falling, single point]

Entries above containing a furan ring, fused or not, in the order listed:
Structure (SMILES) | cell number change [%] | AC50 [1] | AC50 [2]
CCN(CC)c1ccc(N=Cc2c(O)n(Cc3ccco3)c(=O)[nH]c2=O)cc1 | -7.65 | 6.51 µM [falling, single point] | –
O=C1NC(=O)N(Cc2ccco2)C(=O)/C1=C\c1cccn1CCOc1ccc(Cl)cc1 | -12.5 | 11.6 µM [falling, partial curve] | –
CCOP(=O)(Cc1ccc(C#N)o1)OCC | -24.9 | 4.61 µM [rising, partial curve] | –
